{
  "source": "ChEMBL document CHEMBL4513140",
  "about": "“CO-ADD screening of Lancaster University (UK) compounds” (2021)",
  "note": "The other results are listed elsewhere or left out. Entries with a potency or affinity are not part of this list.",
  "data": [
    {"system": "Pseudomonas aeruginosa", "details": "Concentration 32 ug.mL-1; ASSAY_TEST Inhibition of Bacterial Growth; detection method Absorption (OD600); MEDIA CAMHB; plate type 384well; NBS; CORNING #3640; time 18 hr", "units": {"Inhibition": "%"}, "values": [
      {"compound": "c1ccc2nc3c4cccnc4c4ncccc4c3nc2c1", "Inhibition": 25.83},
      {"compound": "COC(=O)c1ccc(S)cc1", "Inhibition": 0.41},
      {"compound": "CC(=NN)c1cc(/C(C)=N/N)cc(/C(C)=N/N)c1", "Inhibition": -1.52},
      {"compound": "CC(=O)c1cc(C(C)=O)cc(C(C)=O)c1", "Inhibition": 9.23}
    ]}
  ]
}
